According to patent publication US6605634B2 (Amgen, Inc., priority 1996, dated 2003):
Some entries share one result that the patent states for a list of compounds. For at least one compound, name, drawing or mass did not settle the structure.

System: production of tumor necrosis factor (TNF) by monocytes activated with bacterial lipopolysaccharide (LPS)
Assay: Lipopolysaccharide-activated Monocyte TNF Production Assay
Format: cell-based, human
Conditions: TNF in culture supernatants by ELISA, read-out: IC50 (concentration of test compounds causing a 50% reduction in TNF production)
Method: Lipopolysaccharide-activated Monocyte TNF Production Assay
Test compounds were evaluated in vitro for the ability to inhibit the production of tumor necrosis factor (TNF) by monocytes activated with bacterial lipopolysaccharide (LPS). Fresh residual source leukocytes (a byproduct of plateletpheresis) were obtained from the local blood bank and peripheral blood mononuclear cells (PBMCs) were isolated by density gradient centrifugation on Ficol-Paque Plus (Pharmacia). PBMCs were suspended at 2×10^6/ml in DMEM supplemented to contain 2% FCS (10 mM), 0.3 mg/ml glutamate, 100 U/ml penicillin G and […] streptomycin sulfate (complete media). Cells were plated into Falcon flatbottom 96 well culture plates (200 μl/well) and cultured overnight at 37° C. and 6% CO2. Nonadherent cells were removed by washing with 200 μl/well of fresh medium. Wells containing adherent cells (˜70% monocytes) were replenished with 100 μl of fresh medium.
Preparation of Test Compound Stock Solutions […]
One hundred microliters of each test compound dilution were added to microtiter wells containing adherent monocytes and 100 μl complete medium. […] Culture supernatants were then removed and TNF present in the supernatants was quantified using an ELISA. […]
Standard curve data were fit to a second order polynomial and unknown TNF-a concentrations determined from their OD by solving this equation for concentration. […]

CC(C)(C)OC(=O)NC(CCCNC(N)=O)C(=O)Nc1ccc2c(-c3ccncc3)c(-c3ccc(F)cc3)[nH]c2n1 (stereo not shown) [Compound 64, 6-(5′-ureido-1′-oxo-2′-t-butoxycarbonylaminopentylamino)-3-(4-pyridyl)-2-(4-fluorophenyl)-7-aza-indole]
IC50: < 20 µM
